No constants are given. Whether binding was seen depends on the method and setting. In cells and extracts the contact can be indirect. Some entries that bind do so weakly or less than the wild type.
Target: EGF receptor (EGFR), mouse, endogenous in primary keratinocytes (mouse (endogenous in primary keratinocytes)) (UniProt Q01279)
Assay: proximity ligation; in situ PLA (Duolink) with anti-EGFR antibody on primary C6st-1 WT, HE and KO mouse keratinocytes; keratinocytes digested with chondroitinase ABC as control

In the case of “EGF receptor (EGFR), mouse, endogenous in primary keratinocytes (from UniProt Q01279 25-1210)”, the binding is reported as “binds”.
